Experimental data as given in publication PMC3556083.

Target: β2-adrenergic receptor (UniProt P07550)
Assay: affinity purification with mass spectrometry; purified Flag-β2AR in rHDL immobilised on M1 anti-Flag resin, occupied by 50 µM BI-167107 (full agonist) or 50 µM carazolol (inverse agonist); adult rat heart cytosol (10 mg/ml, 4 mM CaCl2) overnight at 4°C; eluted with FLAG peptide and EDTA; gel slices, LC-MS; proteins of the M1 resin, empty rHDL and Ni-NTA controls subtracted; hits of either or both samples; only the target purified

B1: PTGES2 (protein, UniProt D4AE56 1-392)
chain: MAQAARVAWVLGSSRCALSEGLLTRPWTQLSAQSRAGFTRAAAGNRGASIRKGSPRLLGVAALALGGALGLYHTVRWHLRSQDLHAERSAVQLSLSNRLQLTLYQYKTCPFCSKVRAFLDFHSLPYQVVEVNPVRRTEIKFSSYRKVPILVAQEGDSLQQLNDSSVIISALKTYLVSGQPLEEIITYYPPMKAMNDQGKEVTEFGNKYWLMLDQKEAQQMYGGKEARTEEMKWRQWADDWLVHLISPNVYRTPAEALASFDYIVREGKFGAVEATMAKYVGAAAMYFISKRLKSRHHLQDDVRVDLYEAANKWVTAVGKDRPFMGGQKPNLADLAVYGVLRVMEGLEAFDDLMRHSHIQPWYLRMERAIKEASSMHYLMFMFSPVPALHREQ
B1 was tested. Which binding did it give?
The binding was “binds”.

B2: GPLD1 (protein, UniProt Q8R2H5 24-843)
chain: CGLSTHVEIGHRALQFLQLQDGRINYKELLLEHQDAYQAGTVFPDAFYPSICKQGKFHEVSESTHWTPFLNASIHYIRENYPLPWEKDTEKLVAFLFGVTSHMVADVSWHSLGIEQGFLRTMGAIDFYDSYSEAHSAGDFGGDVLSQFEFNFNYLSRRWYVPIQDLLRIYDNLYGRKVITKNVIVDCTYLQFLEMHGEMLAVSKLYSTYSTKSPFLVEQFQDYFLGGLDDMAFWSTNIYRLTSFMLENGTSDCNLPENPLFISCDGRKNHTLSSSKVQKNDFHRNLTMFISKDIRKNLNYTERGVFYSTGSWAPESVTFMYQTLERNLRMMFTGNSQTALKHVSSPSASYTLSVPYARLGWVMASADLNQDGHGDLVVGAPGYSHPGRFQIGRVYIIYGNDLGLPPIDLDLDKEAHGVLEGFQPSGRFGSALAVLDFNKDGLPDLAVGAPSVGSGQLTYNGSVYVYYGSQQGRLSSSPNITISCKDTYCNLGWALLAADADGDGQHDLVISSPFAPGGGKQRGIVAAFYSHPRRNDKESLTLDEADWKVNGEEDFSWFGYSLHGVTVANRSLLLIGSPTWKNISRMARSSHQKNQEKKSLGRVYGYFPPNRQREITISGDKAMGKLGTSLSSGYVRVNGTLTQVLLVGAPTHDDVSKMAFLTMTLHHGGATRMYELAPEKTQPALFSTFSGDRRFSRFGSVLHLTDLDDDGLDEIIMAAPLRITDVTSGLLGEEDGRVYIYNGMHTTLGDVTGKCKSWMTPCPEEKAQYVLISPEASSRFGSSLVSVRSKERNQVVVAAGRSSWGARLSGALHVYSFSSD
Which binding does the source give for B2 here?
The binding was “binds”.

These are yes or no findings as the source states them, for the method shown. Binding seen in cells or lysates may run through a third protein. These calls come from enrichment with a bait or labelling near it, and not all partners need be listed.
